Data: US20220030866A1, “CONJUGATES OF AUXIN ANALOGS” (The State of Israel, Ministry of Agriculture & Rural …, priority 2019, published 2022)

Test: endogenous auxins and metabolites in Eucalyptus grandis cuttings by LC-MS
Format: in vivo
Conditions: treatment with IBA alone or IBA and compound

Structure (SMILES)	IBA levels in leaves	time at which IAA levels in the cutting base peaked	time at which IBA levels peaked
COC(=O)[C@H](Cc1c[nH]c2ccccc12)NC(=O)COc1ccc(Cl)cc1 [Compound 1t, 4-CPA-L-Trp]	15 ng/gram	24 h	6 h
O=C(O)CCCc1c[nH]c2ccccc12 [IBA, indole-3-butyric acid, reference compound]	5 ng/gram	6 h	6 h
